# Some of the results follow.
# Chains of the proteins cited; added tags and fusions are not shown. Lines headed by an entry give the natural chain unless they say otherwise; changes in a name come on top.
# UniProt Q15042: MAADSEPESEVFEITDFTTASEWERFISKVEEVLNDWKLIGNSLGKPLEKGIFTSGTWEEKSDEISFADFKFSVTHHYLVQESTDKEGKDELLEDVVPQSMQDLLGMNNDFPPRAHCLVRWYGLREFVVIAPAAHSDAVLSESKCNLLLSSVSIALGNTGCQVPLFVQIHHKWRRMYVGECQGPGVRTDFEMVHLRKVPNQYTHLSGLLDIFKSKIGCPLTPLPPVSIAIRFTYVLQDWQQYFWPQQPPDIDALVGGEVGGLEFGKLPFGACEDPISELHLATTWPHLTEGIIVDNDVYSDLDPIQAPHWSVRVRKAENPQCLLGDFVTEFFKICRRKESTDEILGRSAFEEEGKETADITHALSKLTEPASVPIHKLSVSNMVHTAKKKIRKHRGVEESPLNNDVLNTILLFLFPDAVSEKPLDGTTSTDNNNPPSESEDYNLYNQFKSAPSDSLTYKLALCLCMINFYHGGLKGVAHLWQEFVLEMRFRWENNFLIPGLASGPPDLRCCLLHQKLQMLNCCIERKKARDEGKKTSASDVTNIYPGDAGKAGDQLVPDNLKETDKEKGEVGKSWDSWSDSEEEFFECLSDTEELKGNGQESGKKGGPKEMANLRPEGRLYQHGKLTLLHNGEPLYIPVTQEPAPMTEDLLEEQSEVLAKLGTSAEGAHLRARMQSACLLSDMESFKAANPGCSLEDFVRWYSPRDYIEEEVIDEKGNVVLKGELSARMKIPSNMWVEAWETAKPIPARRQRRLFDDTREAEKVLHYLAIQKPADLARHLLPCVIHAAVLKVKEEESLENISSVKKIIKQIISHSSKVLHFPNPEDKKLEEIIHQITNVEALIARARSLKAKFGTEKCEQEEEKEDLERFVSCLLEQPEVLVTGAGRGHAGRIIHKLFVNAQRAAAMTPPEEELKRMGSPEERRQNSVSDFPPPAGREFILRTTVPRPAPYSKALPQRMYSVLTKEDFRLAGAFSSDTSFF
# UniProt P47897: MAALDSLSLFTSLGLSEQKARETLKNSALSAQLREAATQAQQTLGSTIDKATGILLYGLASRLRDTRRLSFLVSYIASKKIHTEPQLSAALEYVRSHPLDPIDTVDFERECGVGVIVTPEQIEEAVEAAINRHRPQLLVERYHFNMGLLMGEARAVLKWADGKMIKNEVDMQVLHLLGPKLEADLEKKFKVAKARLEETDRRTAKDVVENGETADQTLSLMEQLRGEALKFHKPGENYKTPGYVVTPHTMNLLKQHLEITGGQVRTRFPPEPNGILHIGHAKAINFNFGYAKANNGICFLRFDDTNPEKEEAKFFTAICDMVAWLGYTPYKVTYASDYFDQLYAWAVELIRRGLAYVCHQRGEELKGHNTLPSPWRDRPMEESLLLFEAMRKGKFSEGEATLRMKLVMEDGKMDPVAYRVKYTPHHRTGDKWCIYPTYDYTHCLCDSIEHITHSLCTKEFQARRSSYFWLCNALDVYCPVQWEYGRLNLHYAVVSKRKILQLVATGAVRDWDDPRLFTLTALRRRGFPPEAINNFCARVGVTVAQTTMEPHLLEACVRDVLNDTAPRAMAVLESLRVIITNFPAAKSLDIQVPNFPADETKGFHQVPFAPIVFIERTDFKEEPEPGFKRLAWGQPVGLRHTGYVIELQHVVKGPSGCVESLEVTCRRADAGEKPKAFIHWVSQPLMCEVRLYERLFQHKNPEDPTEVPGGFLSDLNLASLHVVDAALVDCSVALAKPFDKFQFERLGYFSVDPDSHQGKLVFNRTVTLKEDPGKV
# UniProt Q6WKZ4: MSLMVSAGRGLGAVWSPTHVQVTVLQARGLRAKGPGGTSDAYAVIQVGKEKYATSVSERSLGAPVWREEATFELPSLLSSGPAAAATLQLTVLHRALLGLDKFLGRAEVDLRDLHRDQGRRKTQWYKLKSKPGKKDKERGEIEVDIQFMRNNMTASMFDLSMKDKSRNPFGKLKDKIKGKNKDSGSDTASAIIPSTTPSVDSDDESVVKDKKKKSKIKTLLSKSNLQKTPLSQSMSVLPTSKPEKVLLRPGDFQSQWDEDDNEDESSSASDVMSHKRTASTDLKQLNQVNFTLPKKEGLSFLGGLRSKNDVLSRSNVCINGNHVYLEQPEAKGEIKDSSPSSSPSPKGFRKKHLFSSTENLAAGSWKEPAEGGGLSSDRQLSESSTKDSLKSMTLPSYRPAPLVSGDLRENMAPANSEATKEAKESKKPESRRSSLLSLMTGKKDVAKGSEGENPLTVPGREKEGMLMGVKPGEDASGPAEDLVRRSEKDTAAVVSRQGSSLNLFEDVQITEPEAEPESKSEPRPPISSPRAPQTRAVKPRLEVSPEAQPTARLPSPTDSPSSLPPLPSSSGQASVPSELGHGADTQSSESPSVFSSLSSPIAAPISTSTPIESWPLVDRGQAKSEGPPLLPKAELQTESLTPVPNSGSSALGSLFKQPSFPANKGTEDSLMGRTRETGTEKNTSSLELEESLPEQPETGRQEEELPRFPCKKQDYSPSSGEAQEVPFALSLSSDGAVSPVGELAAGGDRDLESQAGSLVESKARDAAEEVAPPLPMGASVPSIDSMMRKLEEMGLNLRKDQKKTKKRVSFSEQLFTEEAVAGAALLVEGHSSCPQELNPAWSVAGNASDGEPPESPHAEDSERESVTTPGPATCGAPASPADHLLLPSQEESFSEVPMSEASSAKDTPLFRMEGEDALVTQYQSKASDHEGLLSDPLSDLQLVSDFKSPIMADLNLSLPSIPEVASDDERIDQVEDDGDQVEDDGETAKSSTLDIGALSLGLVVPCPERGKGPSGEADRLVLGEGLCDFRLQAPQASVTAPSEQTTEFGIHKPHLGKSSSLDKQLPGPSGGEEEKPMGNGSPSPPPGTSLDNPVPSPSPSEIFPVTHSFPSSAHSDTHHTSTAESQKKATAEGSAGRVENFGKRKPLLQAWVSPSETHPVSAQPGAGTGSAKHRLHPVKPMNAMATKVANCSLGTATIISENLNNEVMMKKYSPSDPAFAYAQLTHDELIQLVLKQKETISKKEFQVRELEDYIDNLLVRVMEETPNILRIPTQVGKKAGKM
# UniProt Q15269: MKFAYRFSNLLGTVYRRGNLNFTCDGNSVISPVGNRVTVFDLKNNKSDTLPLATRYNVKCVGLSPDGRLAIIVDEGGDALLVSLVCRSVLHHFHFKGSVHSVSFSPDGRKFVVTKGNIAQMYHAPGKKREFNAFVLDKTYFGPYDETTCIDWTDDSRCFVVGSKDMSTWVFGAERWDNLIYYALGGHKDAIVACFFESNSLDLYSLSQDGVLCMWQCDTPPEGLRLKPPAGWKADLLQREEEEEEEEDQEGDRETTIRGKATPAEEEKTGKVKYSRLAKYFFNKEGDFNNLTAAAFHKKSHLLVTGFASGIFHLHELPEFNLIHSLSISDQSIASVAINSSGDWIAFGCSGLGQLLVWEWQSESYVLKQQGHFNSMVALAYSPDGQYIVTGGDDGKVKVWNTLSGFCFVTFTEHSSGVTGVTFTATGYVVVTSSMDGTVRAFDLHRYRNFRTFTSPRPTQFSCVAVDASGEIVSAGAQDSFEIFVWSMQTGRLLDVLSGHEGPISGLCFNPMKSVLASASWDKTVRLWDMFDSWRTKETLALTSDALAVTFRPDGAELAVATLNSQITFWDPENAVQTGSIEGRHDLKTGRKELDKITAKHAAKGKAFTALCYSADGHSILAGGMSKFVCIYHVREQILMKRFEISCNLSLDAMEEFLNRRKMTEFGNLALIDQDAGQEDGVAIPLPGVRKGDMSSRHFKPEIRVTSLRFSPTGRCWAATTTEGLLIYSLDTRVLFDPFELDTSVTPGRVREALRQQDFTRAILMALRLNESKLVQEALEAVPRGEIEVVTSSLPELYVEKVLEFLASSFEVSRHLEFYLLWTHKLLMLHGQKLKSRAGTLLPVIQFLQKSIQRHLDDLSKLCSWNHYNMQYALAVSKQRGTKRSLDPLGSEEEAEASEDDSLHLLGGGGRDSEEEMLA
# UniProt O60216: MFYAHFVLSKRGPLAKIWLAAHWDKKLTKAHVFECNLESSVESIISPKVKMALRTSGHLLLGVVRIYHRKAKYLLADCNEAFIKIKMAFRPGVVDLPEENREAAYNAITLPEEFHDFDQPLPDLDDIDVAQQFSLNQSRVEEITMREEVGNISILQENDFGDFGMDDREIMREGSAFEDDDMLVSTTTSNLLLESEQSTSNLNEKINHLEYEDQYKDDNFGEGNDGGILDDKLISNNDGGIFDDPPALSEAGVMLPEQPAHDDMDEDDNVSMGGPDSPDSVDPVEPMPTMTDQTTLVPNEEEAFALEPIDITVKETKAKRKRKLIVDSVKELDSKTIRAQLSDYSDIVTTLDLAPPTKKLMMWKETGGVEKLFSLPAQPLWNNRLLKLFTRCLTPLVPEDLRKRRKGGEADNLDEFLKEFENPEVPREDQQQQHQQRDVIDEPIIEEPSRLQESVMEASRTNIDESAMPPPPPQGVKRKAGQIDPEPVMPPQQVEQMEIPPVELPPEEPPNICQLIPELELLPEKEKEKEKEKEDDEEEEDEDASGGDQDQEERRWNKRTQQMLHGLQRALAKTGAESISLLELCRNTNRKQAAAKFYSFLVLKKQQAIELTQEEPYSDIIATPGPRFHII
# UniProt O00391: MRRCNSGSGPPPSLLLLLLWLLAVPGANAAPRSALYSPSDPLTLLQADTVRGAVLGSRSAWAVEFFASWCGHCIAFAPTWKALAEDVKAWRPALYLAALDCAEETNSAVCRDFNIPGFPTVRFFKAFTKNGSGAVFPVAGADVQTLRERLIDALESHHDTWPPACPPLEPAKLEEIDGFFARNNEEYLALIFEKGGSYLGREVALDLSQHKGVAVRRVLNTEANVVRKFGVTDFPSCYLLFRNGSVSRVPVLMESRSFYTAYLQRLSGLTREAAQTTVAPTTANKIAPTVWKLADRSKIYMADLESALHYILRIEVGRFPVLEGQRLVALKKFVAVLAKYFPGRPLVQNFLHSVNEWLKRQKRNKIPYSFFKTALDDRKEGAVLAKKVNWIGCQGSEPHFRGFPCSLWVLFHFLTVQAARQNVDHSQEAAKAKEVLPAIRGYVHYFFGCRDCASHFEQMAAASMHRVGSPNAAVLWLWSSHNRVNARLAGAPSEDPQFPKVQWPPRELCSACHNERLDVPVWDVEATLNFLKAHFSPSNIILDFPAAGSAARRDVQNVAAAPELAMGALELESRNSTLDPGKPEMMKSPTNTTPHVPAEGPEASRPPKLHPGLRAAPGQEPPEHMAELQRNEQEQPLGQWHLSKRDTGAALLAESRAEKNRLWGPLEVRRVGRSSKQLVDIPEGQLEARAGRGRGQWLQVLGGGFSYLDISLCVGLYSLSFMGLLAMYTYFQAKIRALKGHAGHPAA
# UniProt O15315: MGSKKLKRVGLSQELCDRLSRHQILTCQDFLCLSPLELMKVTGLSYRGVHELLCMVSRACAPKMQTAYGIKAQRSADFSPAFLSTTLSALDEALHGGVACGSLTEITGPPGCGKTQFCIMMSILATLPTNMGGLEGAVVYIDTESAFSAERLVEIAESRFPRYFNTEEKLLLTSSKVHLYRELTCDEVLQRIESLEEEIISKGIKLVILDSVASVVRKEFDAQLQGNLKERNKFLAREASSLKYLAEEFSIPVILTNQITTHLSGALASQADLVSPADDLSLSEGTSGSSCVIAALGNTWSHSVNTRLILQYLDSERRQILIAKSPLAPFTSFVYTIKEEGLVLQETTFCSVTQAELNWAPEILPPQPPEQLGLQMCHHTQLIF
# UniProt P61106, whole entry, looked up: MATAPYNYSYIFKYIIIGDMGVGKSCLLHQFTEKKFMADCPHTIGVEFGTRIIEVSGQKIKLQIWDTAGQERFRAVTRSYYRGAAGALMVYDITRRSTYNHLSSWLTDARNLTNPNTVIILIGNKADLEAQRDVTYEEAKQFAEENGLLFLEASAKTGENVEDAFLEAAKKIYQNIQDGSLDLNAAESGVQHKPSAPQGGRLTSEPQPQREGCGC
# UniProt Q92696: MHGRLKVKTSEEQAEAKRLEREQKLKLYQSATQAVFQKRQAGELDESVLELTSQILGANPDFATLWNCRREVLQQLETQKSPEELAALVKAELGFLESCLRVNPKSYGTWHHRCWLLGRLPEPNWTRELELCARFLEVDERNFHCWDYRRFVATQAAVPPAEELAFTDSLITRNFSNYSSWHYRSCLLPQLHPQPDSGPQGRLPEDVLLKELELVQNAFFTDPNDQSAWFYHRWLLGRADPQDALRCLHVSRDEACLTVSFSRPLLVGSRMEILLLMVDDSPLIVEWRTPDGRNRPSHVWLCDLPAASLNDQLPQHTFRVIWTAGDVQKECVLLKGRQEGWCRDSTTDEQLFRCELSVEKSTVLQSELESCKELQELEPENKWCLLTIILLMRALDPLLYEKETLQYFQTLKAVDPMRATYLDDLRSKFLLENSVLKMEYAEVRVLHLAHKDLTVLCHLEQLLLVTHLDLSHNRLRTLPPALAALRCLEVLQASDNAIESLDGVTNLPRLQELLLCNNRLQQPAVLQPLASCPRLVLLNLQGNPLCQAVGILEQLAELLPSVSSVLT
# Compound: CC1Cc2ccccc2N1C(=O)C1CCCN(C1)C(=O)CCl (mixture of isomers) [TRIM25 ligand 11 (diastereomer mixture)]
# Experiment: probe-labelled cysteine peptide fold change vs DMSO (competition) (log2 fold change); higher = less target engagement (more negative = stronger competition)
# Conditions: THP-1, incubation time: 4 h
# 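Further: competitive chemoproteomic profiling in live THP-1 cells with an iodoacetamide desthiobiotin (IA-DTB) probe, comparing probe-labelled peptide intensities in compound-treated cells against DMSO-treated controls.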
target,measurement,setting,value
RAB3GAP1_Q15042_858_CEQEEEK (UniProt Q15042),probe-labelled cysteine peptide fold change,10 µM,0.188
same,probe-labelled cysteine peptide fold change,50 µM,0.0514
QRSL1_Q9H0R6_203_NPAAHCGLVGFK (UniProt Q9H0R6),probe-labelled cysteine peptide fold change,10 µM,0.403
same,probe-labelled cysteine peptide fold change,50 µM,0.44
RAB4B_P61018_23_SCLLHQFIENK (UniProt P61018),probe-labelled cysteine peptide fold change,10 µM,0.0769
same,probe-labelled cysteine peptide fold change,50 µM,-0.0183
RAB10_P61026_124_CDMDDK (UniProt P61026),probe-labelled cysteine peptide fold change,10 µM,-0.0218
same,probe-labelled cysteine peptide fold change,50 µM,-0.142
QARS_P47897_665_GPSGCVESLEVTCR (UniProt P47897),probe-labelled cysteine peptide fold change,10 µM,0.201
same,probe-labelled cysteine peptide fold change,50 µM,0.297
PYCR2_Q96C36_225_MLLDSEQHPCQLK (UniProt Q96C36),probe-labelled cysteine peptide fold change,10 µM,0.0577
same,probe-labelled cysteine peptide fold change,50 µM,-0.0151
RACGAP1_Q9H0H5_93_QRAEADCEK (UniProt Q9H0H5),probe-labelled cysteine peptide fold change,10 µM,0.109
same,probe-labelled cysteine peptide fold change,50 µM,0.249
RABEP1_Q15276_263_ELHEVCHLLEQER (UniProt Q15276),probe-labelled cysteine peptide fold change,10 µM,-0.0262
same,probe-labelled cysteine peptide fold change,50 µM,0.00414
RAB11FIP1_Q6WKZ4_1007_SSTLDIGALSLGLVVPCPER (UniProt Q6WKZ4),probe-labelled cysteine peptide fold change,10 µM,0.000553
same,probe-labelled cysteine peptide fold change,50 µM,0.0263
PWP2_Q15269_158_CFVVGSK (UniProt Q15269),probe-labelled cysteine peptide fold change,10 µM,0.189
same,probe-labelled cysteine peptide fold change,50 µM,0.0718
RAD21_O60216_392_CLTPLVPEDLR (UniProt O60216),probe-labelled cysteine peptide fold change,10 µM,-0.096
same,probe-labelled cysteine peptide fold change,50 µM,0.0227
PUM3_Q15397_185_VIQCYIQYGNEEQR (UniProt Q15397),probe-labelled cysteine peptide fold change,10 µM,-0.00291
same,probe-labelled cysteine peptide fold change,50 µM,0.0703
RABL2A_Q9UBK7_128_EFRPEIPCIVVANK (UniProt Q9UBK7),probe-labelled cysteine peptide fold change,10 µM,0.0337
same,probe-labelled cysteine peptide fold change,50 µM,0.0503
QSOX1_O00391_110_AWRPALYLAALDCAEETNSAVCR (UniProt O00391),probe-labelled cysteine peptide fold change,10 µM,-0.00148
same,probe-labelled cysteine peptide fold change,50 µM,0.238
QARS_P47897_657+665_GPSGCVESLEVTCR (UniProt P47897),probe-labelled cysteine peptide fold change,10 µM,-0.0537
same,probe-labelled cysteine peptide fold change,50 µM,-0.0855
RAD21_O60216_392_CLTPLVPEDLRK (UniProt O60216),probe-labelled cysteine peptide fold change,10 µM,0.0356
same,probe-labelled cysteine peptide fold change,50 µM,0.0542
RABGEF1_Q9UJ41_359_RDLSIEEQSECAQDFYHNVAER (UniProt Q9UJ41),probe-labelled cysteine peptide fold change,10 µM,0.648
same,probe-labelled cysteine peptide fold change,50 µM,-0.0585
RAD51B_O15315_185_ELTCDEVLQR (UniProt O15315),probe-labelled cysteine peptide fold change,10 µM,0.00703
same,probe-labelled cysteine peptide fold change,50 µM,0.0945
RAB14_P61106_26_SCLLHQFTEK (UniProt P61106),probe-labelled cysteine peptide fold change,10 µM,0.0774
same,probe-labelled cysteine peptide fold change,50 µM,0.0849
PXN_P49023_505_ECFTPFVNGSFFEHDGQPYCEVHYHER (UniProt P49023),probe-labelled cysteine peptide fold change,10 µM,0.178
same,probe-labelled cysteine peptide fold change,50 µM,0.282
QTRT2_Q9H974_174_SLLFLDNCLR (UniProt Q9H974),probe-labelled cysteine peptide fold change,10 µM,-0.0933
same,probe-labelled cysteine peptide fold change,50 µM,0.16
RABGGTA_Q92696_302_NRPSHVWLCDLPAASLNDQLPQHTFR (UniProt Q92696),probe-labelled cysteine peptide fold change,10 µM,0.0743
same,probe-labelled cysteine peptide fold change,50 µM,0.0232
QSOX1_O00391_393_KVNWIGCQGSEPHFR (UniProt O00391),probe-labelled cysteine peptide fold change,10 µM,0.0834
same,probe-labelled cysteine peptide fold change,50 µM,0.205

# Part of the list above, bar-delimited.
target | measurement | setting | value
RABGGTA_Q92696_302_NRPSHVWLCDLPAASLNDQLPQHTFR (UniProt Q92696) | probe-labelled cysteine peptide fold change | 10 µM | 0.0743
same | probe-labelled cysteine peptide fold change | 50 µM | 0.0232
QSOX1_O00391_393_KVNWIGCQGSEPHFR (UniProt O00391) | probe-labelled cysteine peptide fold change | 10 µM | 0.0834

# Source: the supplement of paper PMC12067093, “Discovery and optimisation of a covalent ligand for TRIM25 and its application to targeted protein ubiquitination” (Chemical Science, 2025)
